Experimental data: PubChem BioAssay AID652272 (Drosophila RNAi Screening Center, 2013)

- Assay: 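Genome-wide knock-down search for components of Hedgehog signalling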 (primary screen)
- Cells: Drosophila clone 8 (Cl8) cells
- Reagent: long dsRNA against Drosophila genes
- Detection: 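Plate reader light from a firefly reporter under a ptc promoter fragment that responds to Hedgehog, with Renilla light as transfection reference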
- Reading the numbers: firefly Hh reporter signal: higher = more ptc reporter light; Renilla reference signal: higher = more Renilla control light
- Hit rule: 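Called a hit if the two-replicate mean z-score lies below -2 or above +3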
- Meaning of the calls: active = hit: reporter lowered or raised; inactive = not a hit
The screen tested about 21,000 reagents; this is a random part of those with a known target gene and a result. Of all reagents, 503 (2.4%) were called active. 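Raw plate light values, not normalised; calls rest on replicate z-scores that were not deposited; hits include reporter decreases as well as increases.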 Entries without a mark were called inactive. A plus sign joins genes that one reagent is predicted to hit. Not stated in the record: the amount of reagent, the time to read-out.

Depletion of ETH + asRNA:CR43257 [DRSC04612] gave: firefly Hh reporter signal, replicate 1 = 1.16e5; firefly Hh reporter signal, replicate 2 = 44725; Renilla reference signal, replicate 1 = 2737; Renilla reference signal, replicate 2 = 2071.
With knock-down of sofe [DRSC19751], the screen gave firefly Hh reporter signal, replicate 1 = 1.06e5; firefly Hh reporter signal, replicate 2 = 1.10e5; Renilla reference signal, replicate 1 = 2317; Renilla reference signal, replicate 2 = 2632.
For CG3091 [DRSC18274], the values are firefly Hh reporter signal, replicate 1 = 95530; firefly Hh reporter signal, replicate 2 = 1.91e5; Renilla reference signal, replicate 1 = 1280; Renilla reference signal, replicate 2 = 7220.
Knock-down of MED27 (Mediator complex subunit 27) [DRSC12205] gave: firefly Hh reporter signal, replicate 1 = 66755; firefly Hh reporter signal, replicate 2 = 1.12e5; Renilla reference signal, replicate 1 = 1952; Renilla reference signal, replicate 2 = 2885.
For CG31464 [DRSC14345], the entry reads firefly Hh reporter signal, replicate 1 = 76761; firefly Hh reporter signal, replicate 2 = 1.22e5; Renilla reference signal, replicate 1 = 3169; Renilla reference signal, replicate 2 = 3803.
For Spec2 (retired record) [DRSC12258], the values are firefly Hh reporter signal, replicate 1 = 61911; firefly Hh reporter signal, replicate 2 = 1.13e5; Renilla reference signal, replicate 1 = 2448; Renilla reference signal, replicate 2 = 3091.
Depletion of CG14966 [DRSC08425] resulted in: firefly Hh reporter signal, replicate 1 = 70640; firefly Hh reporter signal, replicate 2 = 25144; Renilla reference signal, replicate 1 = 2775; Renilla reference signal, replicate 2 = 281.
Silencing of DhpD (Dihydropterin deaminase) [DRSC12288] gave: firefly Hh reporter signal, replicate 1 = 1.45e5; firefly Hh reporter signal, replicate 2 = 67642; Renilla reference signal, replicate 1 = 5681; Renilla reference signal, replicate 2 = 2818.
For lili (lilipod) [DRSC14143], the entry reads firefly Hh reporter signal, replicate 1 = 1.49e5; firefly Hh reporter signal, replicate 2 = 69476; Renilla reference signal, replicate 1 = 5410; Renilla reference signal, replicate 2 = 2851.
Against CG6191 [DRSC05938] the deposit lists firefly Hh reporter signal, replicate 1 = 49798; firefly Hh reporter signal, replicate 2 = 33187; Renilla reference signal, replicate 1 = 2076; Renilla reference signal, replicate 2 = 1520.
With knock-down of CG31038 [DRSC15051], the record shows firefly Hh reporter signal, replicate 1 = 1.03e5; firefly Hh reporter signal, replicate 2 = 85165; Renilla reference signal, replicate 1 = 2509; Renilla reference signal, replicate 2 = 2307.
With knock-down of CG31038 [DRSC16326], the screen gave firefly Hh reporter signal, replicate 1 = 1.21e5; firefly Hh reporter signal, replicate 2 = 1.31e5; Renilla reference signal, replicate 1 = 4133; Renilla reference signal, replicate 2 = 3981.
CG31038 [DRSC16327] gave firefly Hh reporter signal, replicate 1 = 1.35e5; firefly Hh reporter signal, replicate 2 = 1.82e5; Renilla reference signal, replicate 1 = 5536; Renilla reference signal, replicate 2 = 5633.
With knock-down of CG18265 [DRSC10310] the results were firefly Hh reporter signal, replicate 1 = 71221; Renilla reference signal, replicate 1 = 5560; Renilla reference signal, replicate 2 = 2588.
Silencing of Atg13 (Autophagy-related 13) [DRSC16228] resulted in: firefly Hh reporter signal, replicate 1 = 81228; firefly Hh reporter signal, replicate 2 = 1.71e5; Renilla reference signal, replicate 1 = 3120; Renilla reference signal, replicate 2 = 4808.
After knock-down of Abca3 (ATP binding cassette subfamily A member 3) [DRSC20546], the screen gave firefly Hh reporter signal, replicate 1 = 1.15e5; firefly Hh reporter signal, replicate 2 = 2.87e5; Renilla reference signal, replicate 1 = 3338; Renilla reference signal, replicate 2 = 11165.
Ugt302K1 (UDP-glycosyltransferase family 302 member K1) [DRSC16086] gave firefly Hh reporter signal, replicate 1 = 1.03e5; firefly Hh reporter signal, replicate 2 = 1.46e5; Renilla reference signal, replicate 1 = 3656; Renilla reference signal, replicate 2 = 4509.
Knock-down of CG42540 [DRSC08327] gave: firefly Hh reporter signal, replicate 1 = 86748; firefly Hh reporter signal, replicate 2 = 48082; Renilla reference signal, replicate 1 = 4016; Renilla reference signal, replicate 2 = 1914.
After knock-down of CG42540 [DRSC08328], the screen gave firefly Hh reporter signal, replicate 1 = 48197; firefly Hh reporter signal, replicate 2 = 34153; Renilla reference signal, replicate 1 = 5197; Renilla reference signal, replicate 2 = 2674.
After knock-down of CG42540 [DRSC08593] the results were firefly Hh reporter signal, replicate 1 = 9893; firefly Hh reporter signal, replicate 2 = 7576; Renilla reference signal, replicate 1 = 2072; Renilla reference signal, replicate 2 = 731.
After knock-down of CG31798 [DRSC01702], the record shows firefly Hh reporter signal, replicate 1 = 1.59e5; firefly Hh reporter signal, replicate 2 = 2.42e5; Renilla reference signal, replicate 1 = 4768; Renilla reference signal, replicate 2 = 12088.
